The list shows a part of the results. The calls rarely recur for the same compound in another form.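 Kinases were expressed as nanoluciferase fusions in K562 cells and luminescence was read every 4 h between 2 and 18 h as percent of control, DMSO set to 100% and a positive control to 0%. A time point counts as decreased when the signal drops significantly (2 sigma). The hit call is the authors' own, does not follow from the count of time points alone, and its rule is not shown.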
Tests used:
Assay in all cases: kinase-Nluc reporter destabilization hit call (1 = scored as downregulated) (binary); higher = compound decreases kinase abundance
Settings in all cases: K562; 2-18 h
[1] = target: ABL1 (UniProt P00519)
[2] = target: AKT1 (UniProt P31749)
[3] = target: ALK (UniProt Q9UM73)
[4] = target: ARAF (UniProt P10398)
[5] = target: AURKA (UniProt O14965)
[6] = target: AURKB (UniProt Q96GD4)
[7] = target: AURKC (UniProt Q9UQB9)
[8] = target: BLK (UniProt P51451)
[9] = target: BMX (UniProt P51813)
[10] = target: BRAF (UniProt P15056)

Amino acid sequences for entries named in this document (tags omitted). A change or cut given only in a name is not applied to a line headed by its entry.
UniProt P00519, whole entry: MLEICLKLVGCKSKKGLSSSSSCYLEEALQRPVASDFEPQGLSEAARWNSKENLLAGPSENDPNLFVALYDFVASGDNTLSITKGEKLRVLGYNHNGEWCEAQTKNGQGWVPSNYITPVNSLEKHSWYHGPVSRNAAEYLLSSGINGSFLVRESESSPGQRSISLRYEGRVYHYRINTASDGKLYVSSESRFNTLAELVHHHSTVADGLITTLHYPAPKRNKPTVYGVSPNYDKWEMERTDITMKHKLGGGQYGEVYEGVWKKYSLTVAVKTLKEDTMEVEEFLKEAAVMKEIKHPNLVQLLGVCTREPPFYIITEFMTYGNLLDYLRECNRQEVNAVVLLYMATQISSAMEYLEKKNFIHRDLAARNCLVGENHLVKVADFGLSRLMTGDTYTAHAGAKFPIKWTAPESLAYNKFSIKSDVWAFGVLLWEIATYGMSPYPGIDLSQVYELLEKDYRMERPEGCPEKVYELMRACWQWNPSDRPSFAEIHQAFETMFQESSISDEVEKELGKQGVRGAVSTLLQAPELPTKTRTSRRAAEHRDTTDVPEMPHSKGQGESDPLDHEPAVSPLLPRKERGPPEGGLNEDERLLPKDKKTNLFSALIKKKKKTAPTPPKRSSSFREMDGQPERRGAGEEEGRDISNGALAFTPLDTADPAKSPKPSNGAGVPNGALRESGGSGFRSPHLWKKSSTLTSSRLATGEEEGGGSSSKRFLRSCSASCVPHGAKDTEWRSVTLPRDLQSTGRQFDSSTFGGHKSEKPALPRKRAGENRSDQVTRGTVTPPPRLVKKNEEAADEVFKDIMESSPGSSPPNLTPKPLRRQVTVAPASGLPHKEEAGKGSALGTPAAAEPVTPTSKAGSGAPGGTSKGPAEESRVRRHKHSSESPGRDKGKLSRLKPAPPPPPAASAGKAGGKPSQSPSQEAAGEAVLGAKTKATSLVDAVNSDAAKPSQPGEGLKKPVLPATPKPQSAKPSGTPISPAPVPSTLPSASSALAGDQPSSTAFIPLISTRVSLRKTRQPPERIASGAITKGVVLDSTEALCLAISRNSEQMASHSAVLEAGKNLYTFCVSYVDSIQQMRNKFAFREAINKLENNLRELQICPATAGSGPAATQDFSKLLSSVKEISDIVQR
UniProt Q9UM73: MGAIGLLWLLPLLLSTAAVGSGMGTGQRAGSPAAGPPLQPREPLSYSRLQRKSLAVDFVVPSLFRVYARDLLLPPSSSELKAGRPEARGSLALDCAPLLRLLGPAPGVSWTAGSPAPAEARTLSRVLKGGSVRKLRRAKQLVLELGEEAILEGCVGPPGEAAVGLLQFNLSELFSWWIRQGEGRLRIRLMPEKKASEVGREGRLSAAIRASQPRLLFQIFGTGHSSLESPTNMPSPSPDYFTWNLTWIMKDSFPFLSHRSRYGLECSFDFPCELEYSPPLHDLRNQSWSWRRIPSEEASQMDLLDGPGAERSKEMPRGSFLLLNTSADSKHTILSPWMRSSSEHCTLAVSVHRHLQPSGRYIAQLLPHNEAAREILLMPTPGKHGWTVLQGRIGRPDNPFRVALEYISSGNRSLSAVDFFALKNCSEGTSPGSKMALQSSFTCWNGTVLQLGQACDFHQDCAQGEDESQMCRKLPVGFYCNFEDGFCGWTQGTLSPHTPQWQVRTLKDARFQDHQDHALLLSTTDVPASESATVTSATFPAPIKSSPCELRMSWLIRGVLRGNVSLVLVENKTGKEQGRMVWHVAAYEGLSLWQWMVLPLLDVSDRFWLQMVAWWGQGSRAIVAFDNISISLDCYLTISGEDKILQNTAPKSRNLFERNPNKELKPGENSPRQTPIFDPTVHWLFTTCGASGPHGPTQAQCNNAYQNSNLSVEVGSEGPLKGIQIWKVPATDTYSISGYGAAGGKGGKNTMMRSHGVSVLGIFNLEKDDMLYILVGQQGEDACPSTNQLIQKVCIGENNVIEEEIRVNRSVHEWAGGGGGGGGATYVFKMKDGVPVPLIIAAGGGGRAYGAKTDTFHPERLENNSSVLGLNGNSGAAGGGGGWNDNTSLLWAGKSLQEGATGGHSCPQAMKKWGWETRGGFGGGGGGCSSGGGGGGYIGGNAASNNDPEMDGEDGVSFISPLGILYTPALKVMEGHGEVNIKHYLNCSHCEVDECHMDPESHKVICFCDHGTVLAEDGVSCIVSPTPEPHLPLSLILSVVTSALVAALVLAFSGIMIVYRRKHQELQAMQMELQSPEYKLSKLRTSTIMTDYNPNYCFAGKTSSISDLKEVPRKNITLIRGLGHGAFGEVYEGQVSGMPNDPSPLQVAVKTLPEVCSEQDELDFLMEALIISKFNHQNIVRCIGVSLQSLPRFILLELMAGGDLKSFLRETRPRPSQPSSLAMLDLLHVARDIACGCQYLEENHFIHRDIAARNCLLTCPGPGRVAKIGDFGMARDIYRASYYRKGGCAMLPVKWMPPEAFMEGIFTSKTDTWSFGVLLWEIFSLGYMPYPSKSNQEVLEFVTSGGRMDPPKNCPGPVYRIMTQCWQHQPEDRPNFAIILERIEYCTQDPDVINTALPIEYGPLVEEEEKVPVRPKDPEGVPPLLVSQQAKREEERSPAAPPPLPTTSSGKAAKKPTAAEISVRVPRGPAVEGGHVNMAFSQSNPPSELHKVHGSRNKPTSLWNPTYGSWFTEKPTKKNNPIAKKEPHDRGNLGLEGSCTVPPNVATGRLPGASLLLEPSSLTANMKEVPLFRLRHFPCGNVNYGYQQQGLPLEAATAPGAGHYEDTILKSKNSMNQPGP
UniProt P10398: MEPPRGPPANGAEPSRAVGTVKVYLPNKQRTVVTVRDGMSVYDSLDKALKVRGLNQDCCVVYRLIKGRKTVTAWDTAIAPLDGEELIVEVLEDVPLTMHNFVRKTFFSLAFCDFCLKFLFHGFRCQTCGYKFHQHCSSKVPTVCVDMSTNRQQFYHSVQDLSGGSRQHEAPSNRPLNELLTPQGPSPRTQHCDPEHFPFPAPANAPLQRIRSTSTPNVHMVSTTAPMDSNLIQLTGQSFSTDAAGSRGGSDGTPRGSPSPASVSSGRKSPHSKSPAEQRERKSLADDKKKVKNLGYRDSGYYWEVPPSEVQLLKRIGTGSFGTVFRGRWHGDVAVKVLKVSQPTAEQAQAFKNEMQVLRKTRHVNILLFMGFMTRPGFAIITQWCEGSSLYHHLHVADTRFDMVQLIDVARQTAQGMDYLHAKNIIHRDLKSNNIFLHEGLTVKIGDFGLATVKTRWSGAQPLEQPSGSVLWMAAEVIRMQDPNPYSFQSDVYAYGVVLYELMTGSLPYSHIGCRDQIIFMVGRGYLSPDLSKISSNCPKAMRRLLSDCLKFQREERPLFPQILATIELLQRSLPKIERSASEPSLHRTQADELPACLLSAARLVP
UniProt O14965: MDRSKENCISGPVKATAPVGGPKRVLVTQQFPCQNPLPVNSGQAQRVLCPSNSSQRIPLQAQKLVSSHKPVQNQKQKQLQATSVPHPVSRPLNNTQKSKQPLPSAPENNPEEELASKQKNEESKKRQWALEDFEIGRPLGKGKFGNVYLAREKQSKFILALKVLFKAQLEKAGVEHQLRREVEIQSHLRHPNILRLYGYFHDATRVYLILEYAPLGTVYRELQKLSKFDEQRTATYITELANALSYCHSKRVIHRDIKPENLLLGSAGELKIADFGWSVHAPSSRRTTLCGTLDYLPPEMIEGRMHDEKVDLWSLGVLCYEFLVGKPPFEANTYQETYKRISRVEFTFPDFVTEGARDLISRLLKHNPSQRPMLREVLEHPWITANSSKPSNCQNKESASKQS
UniProt Q96GD4, whole entry: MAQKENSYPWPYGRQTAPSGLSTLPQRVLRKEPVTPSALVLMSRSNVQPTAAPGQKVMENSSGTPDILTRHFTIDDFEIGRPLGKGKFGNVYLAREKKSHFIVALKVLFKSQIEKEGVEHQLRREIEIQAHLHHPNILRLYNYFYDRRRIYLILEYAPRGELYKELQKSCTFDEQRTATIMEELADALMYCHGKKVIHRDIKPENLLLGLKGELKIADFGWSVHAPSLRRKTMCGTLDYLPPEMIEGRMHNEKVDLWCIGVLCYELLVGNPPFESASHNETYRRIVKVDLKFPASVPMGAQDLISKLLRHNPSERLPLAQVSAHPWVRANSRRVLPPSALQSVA
UniProt Q9UQB9: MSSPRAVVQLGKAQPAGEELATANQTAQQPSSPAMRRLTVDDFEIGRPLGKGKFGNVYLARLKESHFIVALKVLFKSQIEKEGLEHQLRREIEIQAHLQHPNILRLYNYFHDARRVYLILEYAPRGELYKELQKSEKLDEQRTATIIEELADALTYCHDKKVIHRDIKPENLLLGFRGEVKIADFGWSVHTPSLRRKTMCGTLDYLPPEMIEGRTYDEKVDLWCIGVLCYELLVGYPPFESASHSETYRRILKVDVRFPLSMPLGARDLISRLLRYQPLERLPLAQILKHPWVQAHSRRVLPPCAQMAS
UniProt P51451: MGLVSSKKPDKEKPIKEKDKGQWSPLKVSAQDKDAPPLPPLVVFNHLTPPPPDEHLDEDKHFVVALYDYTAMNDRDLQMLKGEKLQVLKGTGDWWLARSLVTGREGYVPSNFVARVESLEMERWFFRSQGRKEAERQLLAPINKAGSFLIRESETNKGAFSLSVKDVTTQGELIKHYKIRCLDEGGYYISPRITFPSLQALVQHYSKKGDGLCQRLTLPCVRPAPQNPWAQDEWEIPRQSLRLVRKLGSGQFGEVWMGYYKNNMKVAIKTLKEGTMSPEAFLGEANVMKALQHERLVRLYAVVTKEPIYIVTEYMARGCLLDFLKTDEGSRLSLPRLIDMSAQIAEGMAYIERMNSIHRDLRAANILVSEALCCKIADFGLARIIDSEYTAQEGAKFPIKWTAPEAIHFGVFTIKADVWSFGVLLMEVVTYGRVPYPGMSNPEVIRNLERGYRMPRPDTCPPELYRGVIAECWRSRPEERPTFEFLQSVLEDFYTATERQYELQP
UniProt P51813: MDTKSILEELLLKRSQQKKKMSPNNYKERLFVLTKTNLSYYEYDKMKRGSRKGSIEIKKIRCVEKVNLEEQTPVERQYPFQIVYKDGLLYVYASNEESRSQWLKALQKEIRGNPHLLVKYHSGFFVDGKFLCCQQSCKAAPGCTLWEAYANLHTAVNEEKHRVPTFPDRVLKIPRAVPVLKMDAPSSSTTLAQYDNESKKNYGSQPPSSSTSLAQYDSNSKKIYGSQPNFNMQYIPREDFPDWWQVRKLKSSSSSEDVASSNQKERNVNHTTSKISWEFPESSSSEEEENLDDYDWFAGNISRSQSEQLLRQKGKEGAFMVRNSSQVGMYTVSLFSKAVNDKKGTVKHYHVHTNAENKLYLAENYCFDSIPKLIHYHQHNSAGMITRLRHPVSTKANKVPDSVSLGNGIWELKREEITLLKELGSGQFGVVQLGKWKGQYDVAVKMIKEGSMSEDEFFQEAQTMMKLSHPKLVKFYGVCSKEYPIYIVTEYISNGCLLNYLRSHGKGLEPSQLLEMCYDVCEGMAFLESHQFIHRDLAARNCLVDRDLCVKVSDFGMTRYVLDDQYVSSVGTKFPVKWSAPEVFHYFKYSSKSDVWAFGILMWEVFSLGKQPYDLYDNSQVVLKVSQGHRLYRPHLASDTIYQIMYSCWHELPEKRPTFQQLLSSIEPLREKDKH
UniProt P15056, whole entry, looked up: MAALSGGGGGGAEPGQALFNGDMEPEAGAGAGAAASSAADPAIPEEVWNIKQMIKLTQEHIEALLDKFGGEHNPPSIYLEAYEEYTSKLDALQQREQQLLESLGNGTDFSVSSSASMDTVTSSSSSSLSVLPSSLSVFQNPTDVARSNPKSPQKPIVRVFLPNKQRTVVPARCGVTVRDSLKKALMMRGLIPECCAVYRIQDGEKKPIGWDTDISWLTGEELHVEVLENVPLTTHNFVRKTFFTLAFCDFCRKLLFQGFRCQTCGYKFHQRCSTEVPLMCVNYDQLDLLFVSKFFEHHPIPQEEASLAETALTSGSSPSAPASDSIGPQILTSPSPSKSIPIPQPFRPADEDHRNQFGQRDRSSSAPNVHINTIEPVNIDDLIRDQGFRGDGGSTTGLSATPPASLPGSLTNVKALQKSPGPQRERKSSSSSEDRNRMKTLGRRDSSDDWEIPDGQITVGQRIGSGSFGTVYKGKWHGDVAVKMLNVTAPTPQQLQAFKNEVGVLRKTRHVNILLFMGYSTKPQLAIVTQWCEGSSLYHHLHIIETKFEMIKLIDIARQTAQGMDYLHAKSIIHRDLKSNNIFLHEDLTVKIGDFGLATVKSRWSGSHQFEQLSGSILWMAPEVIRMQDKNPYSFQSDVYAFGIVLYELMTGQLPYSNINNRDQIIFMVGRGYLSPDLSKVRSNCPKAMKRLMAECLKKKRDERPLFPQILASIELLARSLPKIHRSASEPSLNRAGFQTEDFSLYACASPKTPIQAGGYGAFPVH

Measured: kinase-Nluc reporter destabilization hit call

Cc1ccc(NC(=O)c2ccc(CN(CCN(C)C)C(=O)c3cccnc3)cc2)cc1Nc1nccc(-c2cccnc2)n1 [PDGFRα kinase inhibitor 1] (10 µM)
inactive: [1] 0 | [2] 0 | [3] 0 | [4] 0 | [5] 0 | [6] 0 | [7] 0 | [8] 0 | [9] 0 | [10] 0

O=C1NC(=O)C(c2cnc3ccccn23)=C1c1cn2c3c(cc(F)cc13)CNCC2 [GSK-3 inhibitor 1] (2.5 µM)
inactive: [1] 0 | [2] 0 | [3] 0 | [4] 0 | [5] 0 | [6] 0 | [7] 0 | [8] 0 | [9] 0 | [10] 0

CCc1ccc(OCC(=O)Nc2ccc(F)c([N+](=O)[O-])c2)cc1 (10 µM)
inactive: [1] 0 | [2] 0 | [3] 0 | [4] 0 | [5] 0 | [6] 0 | [7] 0 | [8] 0 | [9] 0 | [10] 0

Not a retest: 2 of the compounds above.
Cc1ccc(NC(=O)c2ccc(CN(CCN(C)C)C(=O)c3cccnc3)cc2)cc1Nc1nccc(-c2cccnc2)n1 [PDGFRα kinase inhibitor 1] (10 µM)
inactive: [1] 0 | [2] 0 | [3] 0 | [4] 0 | [5] 0 | [6] 0 | [7] 0 | [8] 0 | [9] 0 | [10] 0

O=C1NC(=O)C(c2cnc3ccccn23)=C1c1cn2c3c(cc(F)cc13)CNCC2 [GSK-3 inhibitor 1] (2.5 µM)
inactive: [1] 0 | [2] 0 | [3] 0 | [4] 0 | [5] 0 | [6] 0 | [7] 0 | [8] 0 | [9] 0 | [10] 0

(more compounds)

C[C@@H]1CN(c2cc(-c3n[nH]c4ccc(OC5(C)CC5)cc34)ncn2)C[C@H](C)O1 (10 µM)
inactive: [1] 0 | [2] 0 | [3] 0 | [4] 0 | [5] 0 | [6] 0 | [7] 0 | [8] 0 | [9] 0 | [10] 0

CCc1cccc(CC)c1NC(=O)N1Cc2[nH]nc(NC(=O)c3ccc(N4CCN(C)CC4)cc3)c2C1 (2.5 µM)
inactive: [1] 0 | [2] 0 | [3] 0 | [4] 0 | [5] 0 | [6] 0 | [7] 0 | [8] 0 | [9] 0 | [10] 0

CCN(CC)c1ccc2cc(-c3nc4cc(C)ccc4o3)c(=O)oc2c1 (10 µM)
inactive: [1] 0 | [2] 0 | [3] 0 | [4] 0 | [5] 0 | [6] 0 | [7] 0 | [8] 0 | [9] 0 | [10] 0

COc1ncccc1-c1cnn2ccc(N3CCN(C(=O)OC(C)C)CC3)nc12 (10 µM)
inactive: [1] 0 | [2] 0 | [3] 0 | [4] 0 | [5] 0 | [6] 0 | [7] 0 | [8] 0 | [9] 0 | [10] 0

O=C(N[C@@H](C1CC1)C(F)(F)F)c1cc(-c2cnn3cc(-c4ccc(F)cc4)cnc23)cs1 (10 µM)
inactive: [1] 0 | [2] 0 | [3] 0 | [4] 0 | [5] 0 | [6] 0 | [7] 0 | [8] 0 | [9] 0 | [10] 0

CNc1cc(Nc2cccn(-c3ccccn3)c2=O)nn2c(C(=O)N[C@@H]3C[C@@H]3F)cnc12 (2.5 µM)
inactive: [1] 0 | [2] 0 | [3] 0 | [4] 0 | [5] 0 | [6] 0 | [7] 0 | [8] 0 | [9] 0 | [10] 0

CN(C)S(=O)(=O)c1ccc2c(c1)/C(=C/c1cc3c([nH]1)CCCC3)C(=O)N2 (2.5 µM)
inactive: [1] 0 | [2] 0 | [3] 0 | [4] 0 | [5] 0 | [6] 0 | [7] 0 | [8] 0 | [9] 0 | [10] 0

CS(=O)(=O)c1ccc(-c2cnc(N)c(-c3ccc(C(F)(F)F)nc3)c2)cc1 (10 µM)
inactive: [1] 0 | [2] 0 | [3] 0 | [4] 0 | [5] 0 | [6] 0 | [7] 0 | [8] 0 | [9] 0 | [10] 0

COc1cc(N2CCOCC2)ccc1Nc1ncc(Cl)c(Nc2ccccc2NS(C)(=O)=O)n1 (2.5 µM)
inactive: [1] 0 | [2] 0 | [3] 0 | [4] 0 | [5] 0 | [6] 0 | [7] 0 | [8] 0 | [9] 0 | [10] 0

Cc1ccc(C(=O)Nc2sc(Nc3ccccc3)nc2C(N)=O)cc1 (10 µM)
inactive: [1] 0 | [2] 0 | [3] 0 | [4] 0 | [5] 0 | [6] 0 | [7] 0 | [8] 0 | [9] 0 | [10] 0

C[C@@H]1COCCN1c1nc(-c2cnc(N)cc2C(F)F)nc(N2[C@H](C)COC[C@@H]2C)n1 (2.5 µM)
inactive: [2] 0 | [3] 0 | [4] 0 | [5] 0 | [6] 0 | [7] 0 | [8] 0 | [9] 0 | [10] 0
active: [1] 1

CCc1cncnc1N1CCN(Cc2nc3ccc(C(F)(F)F)cc3[nH]2)CC1 (10 µM)
inactive: [1] 0 | [2] 0 | [3] 0 | [4] 0 | [5] 0 | [6] 0 | [7] 0 | [8] 0 | [9] 0 | [10] 0

c1ccc(-c2nc3c(c(-n4ccc5cnccc54)n2)CCC3)nc1 (10 µM)
inactive: [1] 0 | [2] 0 | [3] 0 | [4] 0 | [5] 0 | [6] 0 | [7] 0 | [8] 0 | [9] 0 | [10] 0

Nc1c(C(=O)NCc2ccc(C(=O)NCCCC3CCCCC3)cc2)cnn1-c1ccccc1 (2.5 µM)
inactive: [1] 0 | [2] 0 | [3] 0 | [4] 0 | [5] 0 | [6] 0 | [7] 0 | [8] 0 | [9] 0 | [10] 0

N#Cc1c2nc3ccccc3nc2n2ccc(NC(=O)c3cccs3)cc12 (10 µM)
inactive: [1] 0 | [2] 0 | [3] 0 | [4] 0 | [5] 0 | [6] 0 | [7] 0 | [8] 0 | [9] 0 | [10] 0

Cc1ccc2c(Nc3cccc(Cl)c3F)nccc2c1NC(=O)c1csc2c(N)ncnc12 [Belvarafenib] (10 µM)
inactive: [1] 0 | [2] 0 | [3] 0 | [4] 0 | [5] 0 | [6] 0 | [7] 0 | [8] 0 | [9] 0
active: [10] 1

COc1ccc(S(=O)(=O)NCc2ccc(C(=O)NCCc3ccc(Cl)cn3)cc2)cc1 (10 µM)
inactive: [1] 0 | [2] 0 | [3] 0 | [4] 0 | [5] 0 | [6] 0 | [7] 0 | [8] 0 | [9] 0 | [10] 0

COc1c(Nc2cc(C)[nH]n2)nc(Sc2ccc(S(=O)(=O)Cc3cccc([N+](=O)[O-])c3F)cc2F)nc1N1CCCCC1 [Centrinone-B] (2.5 µM)
inactive: [1] 0 | [2] 0 | [3] 0 | [4] 0 | [5] 0 | [6] 0 | [7] 0 | [8] 0 | [9] 0 | [10] 0

C=CC(=O)Nc1cc(-n2c(=O)ccc3cnc4ccc(-c5ccc(NS(C)(=O)=O)cc5)cc4c32)ccc1C (10 µM)
inactive: [1] 0 | [2] 0 | [3] 0 | [4] 0 | [5] 0 | [6] 0 | [7] 0 | [8] 0 | [9] 0 | [10] 0

C[C@@H]1CCNC(=O)c2cc3ccc(C(=O)Nc4nc5ccccc5n4CCCN(C)C)cc3n21 (10 µM)
inactive: [1] 0 | [2] 0 | [3] 0 | [4] 0 | [5] 0 | [6] 0 | [7] 0 | [8] 0 | [9] 0 | [10] 0

CC(C)(O)[C@H]1CC[C@H](Nc2ccc3ncc(-c4cccc(C(F)(F)F)c4)n3n2)CC1 (10 µM)
inactive: [1] 0 | [2] 0 | [3] 0 | [4] 0 | [5] 0 | [6] 0 | [7] 0 | [8] 0 | [9] 0 | [10] 0

C=CC(=O)Nc1cccc(-c2cccc3cnc(Nc4ccc(N5CCN(CCO)CC5)c(F)c4F)nc23)c1 [Olafertinib] (2.5 µM)
inactive: [1] 0 | [2] 0 | [3] 0 | [4] 0 | [5] 0 | [6] 0 | [7] 0 | [8] 0 | [9] 0 | [10] 0

O=C1NC(=Nc2c(Cl)cccc2Cl)S/C1=C\c1ccc2nccnc2c1 (2.5 µM)
inactive: [1] 0 | [2] 0 | [3] 0 | [4] 0 | [5] 0 | [6] 0 | [7] 0 | [8] 0 | [9] 0 | [10] 0

Cc1ccc(NC(=O)c2ccnc(C(F)(F)F)c2)cc1-c1cc(OCCO)nc(N2CCOCC2)c1 (10 µM)
inactive: [1] 0 | [2] 0 | [3] 0 | [4] 0 | [5] 0 | [6] 0 | [7] 0 | [8] 0 | [9] 0 | [10] 0

Cc1cc(C)nc(NS(=O)(=O)c2ccc(NC(=S)NC(=O)COc3ccc(Br)cc3Cl)cc2)n1 (2.5 µM)
inactive: [1] 0 | [2] 0 | [3] 0 | [4] 0 | [5] 0 | [6] 0 | [7] 0 | [8] 0 | [9] 0 | [10] 0

Oc1cc(O)c2c(c1)OC1(c3ccc(O)c(O)c3)Oc3cc(O)c4c(c3C2C1O)OC(c1ccc(O)c(O)c1)C(O)C4 (stereo not given) [Procyanidin A1] (10 µM)
inactive: [1] 0 | [2] 0 | [3] 0 | [4] 0 | [5] 0 | [6] 0 | [7] 0 | [8] 0 | [9] 0 | [10] 0
